Patent US10370327B2, “Ionic liquid films with multiple functionalities for surface modification of biomedical alloys” (BOARD OF REGENTS, THE UNIVERSITY OF TEXAS SYSTEM, priority 2014, dated 2019)

Experiments:
[1] = AFM adhesion strength of IL coating on Ti; conditions: IL-coated Ti
[2] = Pin-on-disk tribology of IL-coated Ti against Ti6Al4V ball; conditions: 10N, 2 Hz, 2000 cycles

| SMILES | Coating adhesion strength [1] | Friction coefficient [2] |
| --- | --- | --- |
| CSCC[C@H](N)C(=O)O.CSCC[C@H](N)C(=O)O.C[n+]1ccn(CCCCCCCCCCn2cc[n+](C)c2)c1 [IL-12, 1,10-Bis(3-methylimidazolium-1-yl)decane dimethionine] | 46.2 nN | – |
| C[n+]1ccn(CCCCCCCCCCn2cc[n+](C)c2)c1.NC(Cc1ccccc1)C(=O)[O-].NC(Cc1ccccc1)C(=O)[O-] [IL-9, 1,10-Bis(3-methylimidazolium-1-yl)decane diphenylalanine] | around 73.5 nN | 0.1 |
